Results reported in patent publication US20240325557A1, “TREATMENT OF CANCER” (INNATE PHARMA, priority 2020, published 2024).
These are yes or no findings as the source states them, for the method shown. Some binding calls cover weakened binding; strength is not graded here.

Amino acid sequences for entries named in this document (tags omitted). A change or cut given only in a name is not applied to a line headed by its entry.
UniProt Q96NY8: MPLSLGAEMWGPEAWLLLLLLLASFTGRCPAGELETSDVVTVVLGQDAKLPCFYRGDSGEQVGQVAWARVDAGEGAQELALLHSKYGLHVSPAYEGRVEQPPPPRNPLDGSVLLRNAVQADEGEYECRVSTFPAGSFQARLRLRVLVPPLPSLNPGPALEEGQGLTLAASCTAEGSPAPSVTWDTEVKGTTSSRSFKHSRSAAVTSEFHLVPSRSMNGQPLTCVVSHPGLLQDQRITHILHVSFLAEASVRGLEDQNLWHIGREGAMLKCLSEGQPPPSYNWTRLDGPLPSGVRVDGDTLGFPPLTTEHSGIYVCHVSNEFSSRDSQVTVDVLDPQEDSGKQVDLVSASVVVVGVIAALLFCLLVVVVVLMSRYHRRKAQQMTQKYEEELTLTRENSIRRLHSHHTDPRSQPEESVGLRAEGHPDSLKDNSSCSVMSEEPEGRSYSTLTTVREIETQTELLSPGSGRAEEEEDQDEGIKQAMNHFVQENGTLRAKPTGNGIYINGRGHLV

Experiments:
[1] = molecular target: human Nectin-4 Mutant 6 (human) (UniProt Q96NY8); assay: binding to HEK-293T cells transfected with the Nectin-4 mutant
[2] = molecular target: human Nectin-4 Mutant 9 (human) (UniProt Q96NY8); assay: as above
[3] = molecular target: human Nectin-4 Mutant 4 (human) (UniProt Q96NY8); assay: as above
[4] = molecular target: human Nectin-4 Mutant 8 (human) (UniProt Q96NY8); assay: as above
[5] = molecular target: human Nectin-4 Mutant 1 (human) (UniProt Q96NY8); assay: as above
[6] = molecular target: human Nectin-4 Mutant 3 (human) (UniProt Q96NY8); assay: as above
[7] = molecular target: human Nectin-4 Mutant 2 (human) (UniProt Q96NY8); assay: as above
[8] = molecular target: Cynomolgus Nectin-4 on CHO cells (cynomolgus); assay: flow cytometry on CHO cells expressing cynomolgus Nectin-4
[9] = molecular target: Cynomolgus Nectin-4 on CHO cells (cynomolgus); assay: flow cytometry titration on CHO cells expressing cynomolgus Nectin-4, median MFI (PE)
[10] = molecular target: human Nectin-4 Mutant 7bis (human) (UniProt Q96NY8); assay: binding to HEK-293T cells transfected with the Nectin-4 mutant
[11] = molecular target: human Nectin-4 Mutant 7 (human) (UniProt Q96NY8); assay: as above

Measured: binding

B1: antibody 5E7 (antibody, human IgG1, V domains shown)
VH: QVQLQQPGAELVKPGASVKLSCKASGYIFTSYWMHWVKQRPGQGLEWIGEIDPSDSYTNYNQKFKGKATLTLDKSSSTTYMQLSSLTSEDSAVYYCVRGYGNYGDYWGQGTTLTVSS
VL: DVVMTQAAFSNPVTLGTSASISCRSSKSLLHSNGITYLYWYLQKPGQSPQLLIYQMSNLASGVPDRFSSSGSGTDFTLRISRVEAEDVGVYYCAQNLELPWTFGGGTKLEIK
not listed: [10] | [11]
binds: all other assays above

B2: antibody 10B12 (antibody, human IgG1, V domains shown)
VH: QVQLQQPGAELVKPGASVKLSCKASGYTFTSYWMHWVKQRPGQGLEWIGEIDPSDSYTNYNQKFKGKATLTVDKSSSTAYMQLSSLTSEDSAVYYCVRGYGNYGDYWGQGTTLTVSS
VL: DIVMTQAAFSNPVTLGTSASISCRSSKSLLHSNGITYLYWYLQKPGQSPQLLIYQMSNLASGVPDRFSSSGSGTDFTLRISRVEAEDVGVYYCAQNLELPWTFGGGTKLEIK
not listed: [10] | [11]
binds: all other assays above

B3: antibody N41 (antibody, V domains shown)
VH: QVQLKQSGPGLVQPSQSLSITCTVSGFSLTNYGVHWVRQSPGKGLEWLGVIWSGGSTDYNAAFISRLSISKDTSKSQVFFKMNSLQADDTAIYYCARELIHAMDNWGQGTSVTVSS
VL: DIQMTQSPASLSVSVGETVTITCRASENIYSNLAWYQQKQGNSPQLLVFAATNLADGVPSRFSGSGSGTQYSLKINSLQSEDFGTYYCQHFWGTPTFGGGTKLEIK
not listed: [5] | [8] | [9]
binds: all other assays above
